# In paper PMC7819943, “Rice protein-binding microarrays: a tool to detect cis-acting elements near promoter regions in rice”:
# Protein sequences, listed by entry. Tags and fused reporters are not part of them.
# UniProt Q0JBA9, entry or part of it: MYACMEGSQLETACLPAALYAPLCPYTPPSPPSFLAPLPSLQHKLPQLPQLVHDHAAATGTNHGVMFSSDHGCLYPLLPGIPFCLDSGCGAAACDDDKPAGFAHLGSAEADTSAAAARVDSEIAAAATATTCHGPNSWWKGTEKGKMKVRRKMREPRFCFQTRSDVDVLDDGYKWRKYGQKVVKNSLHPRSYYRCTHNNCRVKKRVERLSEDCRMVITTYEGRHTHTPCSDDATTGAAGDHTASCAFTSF
# The list shows a part of the results.
# Molecular target: OsWRKY34 (Oryza sativa, UniProt Q0JBA9 1-250)
# Experiment: protein-binding microarray (RPBM); PBS, 2% BSA, 51.3 ng/ul salmon testes DNA, 50 uM zinc acetate, 200 nM TF, 25 C, 1 h; high values mean tight binding
# Conditions: protein: recombinant; tags: N-terminal polyhistidine and DsRed monomer fusion (pET32a); label: CyDye5-dUTP incorporated in the synthesized complementary strand; 3' TTTTT single-stranded linker to array surface; dsDNA, one strand shown
# Procedure, shortened: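 Using Ni–NTA, transcription factors fused N-terminally to polyhistidine and DsRed were purified after expression in E. coli BL21-CodonPlus. These were incubated at 200 nM with a blocked, double-stranded custom Agilent array for 1 h at 25 °C in a buffer containing 50 µM zinc acetate, and the array was washed. The binding signal is per-feature fluorescence intensity (arbitrary units) on an Axon 4000B scanner.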
row,Sequence,binding signal
1,AATTATGCTTCTGACTTCTGTTGTGGCTTGATTGATCCGTCGGAGTCACCTAGTGCAG,9430 fluorescence intensity (a.u.)
2,TTTTGGACTTGATTTTTTTCTCAATTATAGTTTGTTTATTCGGAGTCACCTAGTGCAG,8910 fluorescence intensity (a.u.)
3,AATAATTGGCACTGCTCCATTAACGTTTTATTACTGACATCGGAGTCACCTAGTGCAG,9340 fluorescence intensity (a.u.)
4,ACAGATCAAACTTAACCGTATCAGCTCGATCAATATCCAACGGAGTCACCTAGTGCAG,10900 fluorescence intensity (a.u.)
5,GTATCAGTGTATAAGTTTGAGCACCATTTTTCCATGATCTCGGAGTCACCTAGTGCAG,9200 fluorescence intensity (a.u.)
6,CCCATACTGACCGCATATATACCAGCAGTTTTCTTCTTTACGGAGTCACCTAGTGCAG,13700 fluorescence intensity (a.u.)
7,TAAGACGAATGGTCAAATATGTGCTAAAAAGTCAACGGTGCGGAGTCACCTAGTGCAG,13100 fluorescence intensity (a.u.)
8,ACTCGATTCTATTCCACCGCTGCTATGACTCCCTGTGCTACGGAGTCACCTAGTGCAG,8860 fluorescence intensity (a.u.)
9,TCTTTCTTTGTTGACTGCCAAACAATTCCCCTTCAGCTCACGGAGTCACCTAGTGCAG,9580 fluorescence intensity (a.u.)
10,CTCTTCCACCACCACCCGCCGCCGCCGCCTCCGCCGCGTGCGGAGTCACCTAGTGCAG,8160 fluorescence intensity (a.u.)
11,ATGATGCCGTTGACTTTTTGAACAACGTTTGACTATTCGTCGGAGTCACCTAGTGCAG,32600 fluorescence intensity (a.u.)
12,TCGGCAGAGCTTGCCAAGACGACCTACGTCACCACCTTGCCGGAGTCACCTAGTGCAG,8380 fluorescence intensity (a.u.)
13,ACACAAAATGCACACCATGTCCACCATATCTCCTTACACGCGGAGTCACCTAGTGCAG,11200 fluorescence intensity (a.u.)
14,GGGATTTATTGTTGCCTCATTTATTTTTAGGAATTTTCTTCGGAGTCACCTAGTGCAG,9920 fluorescence intensity (a.u.)
15,ACTTGGTAAGTATATGCTTGTCGTTTTCAGATCGCCTCACCGGAGTCACCTAGTGCAG,8920 fluorescence intensity (a.u.)
16,CACCATTTTCCACATACTCTGCCTAGACGCCGACAAGTGACGGAGTCACCTAGTGCAG,8580 fluorescence intensity (a.u.)
17,GGGCTCACAGACCTCTCTCCATCTCTCTTGCTGTGAGGATCGGAGTCACCTAGTGCAG,9240 fluorescence intensity (a.u.)
18,ATTACCCGTGATACTCACTCACTCATCCCAGATCATTCCACGGAGTCACCTAGTGCAG,10800 fluorescence intensity (a.u.)
19,CTTATGTGTAATGTAATCAAGGTGCCATCTTTGTTTTTTTCGGAGTCACCTAGTGCAG,11800 fluorescence intensity (a.u.)
20,CGCCAGCCCTTTTTCTAACTCGATTTTCACAGGAGTTTTTCGGAGTCACCTAGTGCAG,8560 fluorescence intensity (a.u.)
21,GCCGCCACCGCCACCTCACAGTCTCACACTGCCATTGCCGCGGAGTCACCTAGTGCAG,9180 fluorescence intensity (a.u.)

# Single entries from the results shown:
# Under binding signal, GCCGCCACCGCCACCTCACAGTCTCACACTGCCATTGCCGCGGAGTCACCTAGTGCAG reads 9180 fluorescence intensity (a.u.)
# Under binding signal, TCGGCAGAGCTTGCCAAGACGACCTACGTCACCACCTTGCCGGAGTCACCTAGTGCAG reads 8380 fluorescence intensity (a.u.)

# (cont.)

row,Sequence,binding signal
1,TACTTGCAACCGTCCTAACTATATTACGTACATGGTACCACGGAGTCACCTAGTGCAG,8790 fluorescence intensity (a.u.)
2,GAATTTTTTTTGTTAAAGATGTTCATGGTATATTGTCTCGCGGAGTCACCTAGTGCAG,8490 fluorescence intensity (a.u.)
3,ACTCGTCGACACTTATACATTTGCATAAACTTTCTAAATTCGGAGTCACCTAGTGCAG,9820 fluorescence intensity (a.u.)
4,TAAGAGTTTTTTCTTTTTCAAGGATTATCCTTTCTCATCTCGGAGTCACCTAGTGCAG,9150 fluorescence intensity (a.u.)
5,TTCTTGGCAGCCAAGTTGATGCTTTTGGACAGGGTTGACTCGGAGTCACCTAGTGCAG,8960 fluorescence intensity (a.u.)
6,CCACCATCCTGACCAGCTGCCAGCTATCATTTTCTGGATACGGAGTCACCTAGTGCAG,9070 fluorescence intensity (a.u.)
7,AGCCATATTCTAATTCTTCTTTCTTTCTCTTTTTTTTTTTCGGAGTCACCTAGTGCAG,9470 fluorescence intensity (a.u.)
8,CGCCTCCACTACCGCCTGTCCCTTTCGTCCACCACCAGTCCGGAGTCACCTAGTGCAG,12200 fluorescence intensity (a.u.)
9,GTGCACTTACATGCCATATCTACTATTTTTACAACTGTAACGGAGTCACCTAGTGCAG,8590 fluorescence intensity (a.u.)
10,TAAAGGCCCTTGTCCTTCCGCGTGTTGCAAGTTTTTAATACGGAGTCACCTAGTGCAG,8210 fluorescence intensity (a.u.)
11,TATTTTAAGATATTTTCAACGTGGTATCTTTTTCAGCGTTCGGAGTCACCTAGTGCAG,8600 fluorescence intensity (a.u.)
12,CGCCACATCCGCCGTTCCCCACGACCACGACCACCGCCGCCGGAGTCACCTAGTGCAG,8520 fluorescence intensity (a.u.)
13,GTCGCCTTGCGCCTGCCATTATCCAGGTTCTTGCCTCTTCCGGAGTCACCTAGTGCAG,9530 fluorescence intensity (a.u.)
14,TCCTTGTGCCCACTTCTAGCTAGCTTCCAAGTTCCAACCACGGAGTCACCTAGTGCAG,13700 fluorescence intensity (a.u.)
15,TATTACTCTTAGTCTGGTGGTATATATGCAGAAAGATATTCGGAGTCACCTAGTGCAG,12400 fluorescence intensity (a.u.)
16,TAAACTTCAACTTATTCGGTATTCGTTTTTTGTTAGTACGCGGAGTCACCTAGTGCAG,9860 fluorescence intensity (a.u.)
17,CTCCGTTTTCACCCCTATGTATAGTTTATATGTAAATTGCCGGAGTCACCTAGTGCAG,8830 fluorescence intensity (a.u.)
18,CTTCTGTTTCTGTAATCGTGTTGAAAAACCAGCATCTCATCGGAGTCACCTAGTGCAG,8240 fluorescence intensity (a.u.)
19,CTTCAACTTTCTTGTTTTTCAAACTGTGGTGTGTTTTTGACGGAGTCACCTAGTGCAG,10500 fluorescence intensity (a.u.)
20,TCTTCTTCTTGTTTCGGCTTCCGCCTCCGTCCCGCGCGCGCGGAGTCACCTAGTGCAG,13800 fluorescence intensity (a.u.)
21,CCACACAATCAACGCCATGATTACATTGCACTTGTCGTATCGGAGTCACCTAGTGCAG,8390 fluorescence intensity (a.u.)
